Results are given in words; binding and its absence hold for the method and conditions named. In cells and extracts the contact can be indirect. Here binding means that the protein was enriched with, or labelled near, the bait; the list need not be complete. A no says only that the protein was not detected with the bait.
Each substance was assayed against Venus-GABAA receptor α1 subunit fusion (inhibitory synapse affinity tag) (UniProt P62812) (assay: affinity purification with mass spectrometry; same immunopurification via VGABAARα1 (tagged sample) or eGFP (control sample); FASP II on-membrane digestion, LC-MS/MS on LTQ-Orbitrap XL, X!Tandem search, cutoff E = 10^-4; two replicates; proteins found with eGFP subtracted).

The chains behind the UniProt entries cited, without tags or fusion partners. Residues count along the entry.
UniProt P62812, residues 28-455: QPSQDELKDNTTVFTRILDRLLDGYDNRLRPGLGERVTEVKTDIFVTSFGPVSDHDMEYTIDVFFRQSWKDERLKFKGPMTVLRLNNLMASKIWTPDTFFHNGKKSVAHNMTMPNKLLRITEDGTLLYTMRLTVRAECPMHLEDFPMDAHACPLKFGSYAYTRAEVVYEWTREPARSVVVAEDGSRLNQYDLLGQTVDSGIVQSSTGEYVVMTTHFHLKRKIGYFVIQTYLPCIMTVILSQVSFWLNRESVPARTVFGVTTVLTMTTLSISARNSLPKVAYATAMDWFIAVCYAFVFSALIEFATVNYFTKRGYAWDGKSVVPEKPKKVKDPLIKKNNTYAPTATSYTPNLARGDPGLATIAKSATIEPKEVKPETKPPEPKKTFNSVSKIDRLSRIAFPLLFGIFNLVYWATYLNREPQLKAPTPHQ
UniProt Q8BYM5, residues 35-825: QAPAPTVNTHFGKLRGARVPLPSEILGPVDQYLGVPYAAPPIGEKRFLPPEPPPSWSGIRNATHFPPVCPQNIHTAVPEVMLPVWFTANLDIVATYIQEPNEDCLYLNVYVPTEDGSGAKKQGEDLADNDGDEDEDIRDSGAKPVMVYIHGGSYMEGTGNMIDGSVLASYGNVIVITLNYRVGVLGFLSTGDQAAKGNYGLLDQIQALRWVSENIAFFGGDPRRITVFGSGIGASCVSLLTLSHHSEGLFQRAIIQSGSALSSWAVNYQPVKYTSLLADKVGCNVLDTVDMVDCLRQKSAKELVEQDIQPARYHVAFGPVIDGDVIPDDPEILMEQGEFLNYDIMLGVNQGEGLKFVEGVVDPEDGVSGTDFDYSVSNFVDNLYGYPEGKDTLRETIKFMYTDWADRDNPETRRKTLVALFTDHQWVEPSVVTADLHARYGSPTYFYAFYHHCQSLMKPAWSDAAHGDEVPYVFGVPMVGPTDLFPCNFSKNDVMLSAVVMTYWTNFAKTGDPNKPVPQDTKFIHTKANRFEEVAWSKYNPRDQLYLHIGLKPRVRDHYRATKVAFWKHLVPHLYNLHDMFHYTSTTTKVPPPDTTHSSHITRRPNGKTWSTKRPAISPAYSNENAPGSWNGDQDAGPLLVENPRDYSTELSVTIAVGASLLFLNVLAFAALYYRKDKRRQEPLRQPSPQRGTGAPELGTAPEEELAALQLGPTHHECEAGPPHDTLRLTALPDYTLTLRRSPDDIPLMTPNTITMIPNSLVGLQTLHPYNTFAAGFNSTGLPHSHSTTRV
UniProt Q9CS84, residues 31-1514: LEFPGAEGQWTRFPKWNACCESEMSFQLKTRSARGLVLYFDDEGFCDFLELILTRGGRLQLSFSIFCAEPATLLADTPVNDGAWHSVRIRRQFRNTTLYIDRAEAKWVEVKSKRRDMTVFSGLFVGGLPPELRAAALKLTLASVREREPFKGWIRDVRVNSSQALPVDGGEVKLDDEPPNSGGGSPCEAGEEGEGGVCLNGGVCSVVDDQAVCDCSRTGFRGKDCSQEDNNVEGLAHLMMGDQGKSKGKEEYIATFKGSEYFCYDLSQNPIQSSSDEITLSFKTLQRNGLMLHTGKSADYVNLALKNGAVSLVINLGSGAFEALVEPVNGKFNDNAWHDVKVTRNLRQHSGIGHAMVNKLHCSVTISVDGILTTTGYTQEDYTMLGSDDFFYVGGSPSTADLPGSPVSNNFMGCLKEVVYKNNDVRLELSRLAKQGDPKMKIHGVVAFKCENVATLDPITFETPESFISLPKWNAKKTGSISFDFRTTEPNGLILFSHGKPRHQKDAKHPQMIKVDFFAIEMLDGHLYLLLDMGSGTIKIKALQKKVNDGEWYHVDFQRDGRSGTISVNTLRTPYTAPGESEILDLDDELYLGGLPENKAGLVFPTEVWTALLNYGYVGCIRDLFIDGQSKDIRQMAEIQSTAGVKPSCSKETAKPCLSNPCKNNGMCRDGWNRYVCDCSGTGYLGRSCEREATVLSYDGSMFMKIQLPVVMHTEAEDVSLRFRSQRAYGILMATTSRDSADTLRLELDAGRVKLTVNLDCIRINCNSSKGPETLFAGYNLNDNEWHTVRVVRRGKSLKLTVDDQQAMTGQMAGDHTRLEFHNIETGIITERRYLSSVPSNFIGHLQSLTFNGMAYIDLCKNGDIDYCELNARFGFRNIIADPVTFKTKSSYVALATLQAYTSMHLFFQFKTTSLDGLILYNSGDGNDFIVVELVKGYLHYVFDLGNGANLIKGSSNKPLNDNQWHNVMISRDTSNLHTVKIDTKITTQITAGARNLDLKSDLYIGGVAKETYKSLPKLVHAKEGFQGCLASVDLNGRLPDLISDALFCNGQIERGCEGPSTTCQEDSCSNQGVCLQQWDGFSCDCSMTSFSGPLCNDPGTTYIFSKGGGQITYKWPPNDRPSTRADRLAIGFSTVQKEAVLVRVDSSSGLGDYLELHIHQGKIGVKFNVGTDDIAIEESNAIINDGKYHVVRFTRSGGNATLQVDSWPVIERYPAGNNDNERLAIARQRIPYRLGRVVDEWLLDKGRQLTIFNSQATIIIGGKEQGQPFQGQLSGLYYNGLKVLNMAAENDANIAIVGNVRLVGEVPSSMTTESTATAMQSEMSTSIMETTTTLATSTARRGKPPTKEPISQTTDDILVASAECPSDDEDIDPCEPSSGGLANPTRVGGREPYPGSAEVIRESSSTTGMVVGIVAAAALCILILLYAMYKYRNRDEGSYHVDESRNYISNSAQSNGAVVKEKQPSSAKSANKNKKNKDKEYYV
UniProt Q9EPN1: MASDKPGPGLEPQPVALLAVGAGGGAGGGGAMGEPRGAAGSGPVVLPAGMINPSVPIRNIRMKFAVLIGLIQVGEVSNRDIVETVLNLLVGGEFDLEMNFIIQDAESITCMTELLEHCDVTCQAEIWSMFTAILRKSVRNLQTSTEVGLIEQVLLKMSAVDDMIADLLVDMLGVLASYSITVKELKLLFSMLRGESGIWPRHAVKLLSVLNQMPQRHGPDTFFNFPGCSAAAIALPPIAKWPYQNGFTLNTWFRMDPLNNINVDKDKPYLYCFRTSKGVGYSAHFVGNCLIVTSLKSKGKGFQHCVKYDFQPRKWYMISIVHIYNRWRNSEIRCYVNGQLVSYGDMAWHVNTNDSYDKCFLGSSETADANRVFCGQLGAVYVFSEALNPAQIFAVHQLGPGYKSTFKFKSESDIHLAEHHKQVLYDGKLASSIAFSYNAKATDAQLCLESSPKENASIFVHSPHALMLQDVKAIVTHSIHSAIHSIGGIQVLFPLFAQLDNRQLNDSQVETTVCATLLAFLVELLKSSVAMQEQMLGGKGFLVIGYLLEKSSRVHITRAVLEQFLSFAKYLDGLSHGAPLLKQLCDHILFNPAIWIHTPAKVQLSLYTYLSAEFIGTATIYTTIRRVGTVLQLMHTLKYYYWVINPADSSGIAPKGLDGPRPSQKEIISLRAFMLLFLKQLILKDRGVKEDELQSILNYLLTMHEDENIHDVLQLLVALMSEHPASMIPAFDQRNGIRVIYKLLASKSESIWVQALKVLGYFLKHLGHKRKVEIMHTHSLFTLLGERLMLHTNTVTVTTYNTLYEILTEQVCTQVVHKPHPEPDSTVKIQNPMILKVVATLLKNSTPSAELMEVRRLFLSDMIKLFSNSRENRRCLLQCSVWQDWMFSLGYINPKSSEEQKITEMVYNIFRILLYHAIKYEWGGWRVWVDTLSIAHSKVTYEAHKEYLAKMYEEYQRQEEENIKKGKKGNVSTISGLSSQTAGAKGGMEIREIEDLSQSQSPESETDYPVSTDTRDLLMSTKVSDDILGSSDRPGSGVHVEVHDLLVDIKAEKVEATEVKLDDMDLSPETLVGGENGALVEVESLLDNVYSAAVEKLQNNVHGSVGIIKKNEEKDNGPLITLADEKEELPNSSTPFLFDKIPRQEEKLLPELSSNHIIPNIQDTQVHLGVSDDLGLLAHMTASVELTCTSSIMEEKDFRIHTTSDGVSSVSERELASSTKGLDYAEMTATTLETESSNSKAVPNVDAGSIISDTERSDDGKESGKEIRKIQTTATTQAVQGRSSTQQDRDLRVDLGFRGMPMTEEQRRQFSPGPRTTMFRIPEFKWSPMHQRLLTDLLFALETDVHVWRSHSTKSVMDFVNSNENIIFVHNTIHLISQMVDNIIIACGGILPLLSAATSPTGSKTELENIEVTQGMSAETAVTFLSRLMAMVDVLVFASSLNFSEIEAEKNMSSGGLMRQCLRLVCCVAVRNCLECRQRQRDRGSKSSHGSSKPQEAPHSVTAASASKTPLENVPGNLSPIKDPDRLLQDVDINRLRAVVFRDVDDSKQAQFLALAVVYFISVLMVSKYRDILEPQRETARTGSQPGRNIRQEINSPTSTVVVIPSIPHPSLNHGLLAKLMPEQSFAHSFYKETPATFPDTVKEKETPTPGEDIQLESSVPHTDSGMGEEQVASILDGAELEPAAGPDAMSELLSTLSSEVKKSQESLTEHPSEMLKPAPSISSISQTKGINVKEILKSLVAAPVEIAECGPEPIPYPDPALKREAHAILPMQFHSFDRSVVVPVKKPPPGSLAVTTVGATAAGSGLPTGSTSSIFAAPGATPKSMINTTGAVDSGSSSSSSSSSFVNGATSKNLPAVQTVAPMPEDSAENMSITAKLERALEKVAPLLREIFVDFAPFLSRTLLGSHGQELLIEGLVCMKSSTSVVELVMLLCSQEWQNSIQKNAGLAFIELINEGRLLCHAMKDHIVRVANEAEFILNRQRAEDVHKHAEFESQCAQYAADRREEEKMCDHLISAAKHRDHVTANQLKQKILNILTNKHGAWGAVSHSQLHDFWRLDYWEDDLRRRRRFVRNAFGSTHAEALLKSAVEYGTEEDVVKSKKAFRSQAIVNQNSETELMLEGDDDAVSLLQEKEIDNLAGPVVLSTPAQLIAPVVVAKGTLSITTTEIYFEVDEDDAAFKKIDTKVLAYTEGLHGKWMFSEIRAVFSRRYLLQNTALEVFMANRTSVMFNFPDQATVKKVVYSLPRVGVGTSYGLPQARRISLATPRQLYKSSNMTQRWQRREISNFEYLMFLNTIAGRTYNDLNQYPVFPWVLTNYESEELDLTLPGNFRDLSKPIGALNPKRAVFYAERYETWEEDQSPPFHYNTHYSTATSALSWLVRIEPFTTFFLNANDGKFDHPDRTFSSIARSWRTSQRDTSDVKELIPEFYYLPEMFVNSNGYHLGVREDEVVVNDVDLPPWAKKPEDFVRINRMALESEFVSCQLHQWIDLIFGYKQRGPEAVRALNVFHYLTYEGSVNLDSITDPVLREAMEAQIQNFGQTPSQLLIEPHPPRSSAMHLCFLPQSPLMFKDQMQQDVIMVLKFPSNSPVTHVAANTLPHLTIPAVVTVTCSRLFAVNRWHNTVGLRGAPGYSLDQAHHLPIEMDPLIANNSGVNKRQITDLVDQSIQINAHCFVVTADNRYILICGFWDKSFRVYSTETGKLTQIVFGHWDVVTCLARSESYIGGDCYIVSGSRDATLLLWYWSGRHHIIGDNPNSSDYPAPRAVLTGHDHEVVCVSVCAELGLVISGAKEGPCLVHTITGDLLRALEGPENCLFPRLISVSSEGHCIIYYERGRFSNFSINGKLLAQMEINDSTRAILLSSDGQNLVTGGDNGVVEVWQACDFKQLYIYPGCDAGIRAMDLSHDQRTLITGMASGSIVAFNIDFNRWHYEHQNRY
UniProt Q99K10, residues 46-843: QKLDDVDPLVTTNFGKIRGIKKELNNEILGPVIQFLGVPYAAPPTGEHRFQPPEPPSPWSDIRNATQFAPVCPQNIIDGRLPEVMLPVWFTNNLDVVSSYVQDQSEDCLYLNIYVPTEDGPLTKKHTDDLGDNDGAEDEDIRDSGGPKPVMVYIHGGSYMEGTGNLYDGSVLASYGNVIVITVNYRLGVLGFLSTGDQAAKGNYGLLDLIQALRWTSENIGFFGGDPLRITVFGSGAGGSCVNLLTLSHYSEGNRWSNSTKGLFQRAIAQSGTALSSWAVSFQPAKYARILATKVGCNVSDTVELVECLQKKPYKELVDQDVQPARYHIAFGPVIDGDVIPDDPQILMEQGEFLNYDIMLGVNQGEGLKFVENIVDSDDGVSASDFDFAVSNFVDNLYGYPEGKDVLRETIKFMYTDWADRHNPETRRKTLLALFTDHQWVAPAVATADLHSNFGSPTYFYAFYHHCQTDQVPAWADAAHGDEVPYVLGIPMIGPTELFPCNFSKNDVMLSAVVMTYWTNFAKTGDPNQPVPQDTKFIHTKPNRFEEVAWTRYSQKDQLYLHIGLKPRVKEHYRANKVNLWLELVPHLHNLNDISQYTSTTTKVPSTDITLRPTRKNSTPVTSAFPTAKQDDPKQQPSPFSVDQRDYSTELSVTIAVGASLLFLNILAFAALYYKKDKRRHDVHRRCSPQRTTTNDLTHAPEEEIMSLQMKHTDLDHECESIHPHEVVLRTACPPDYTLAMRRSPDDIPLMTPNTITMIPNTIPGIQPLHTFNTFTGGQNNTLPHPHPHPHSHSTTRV

Row | binding | Substance
1 | binds | Neuroligin 3 (from UniProt Q8BYM5 35-825)
2 | binds | Neuroligin 2 (from UniProt Q69ZK9 15-836)
3 | binds | Neurexin I (from UniProt Q9CS84 31-1514)
4 | binds | Neurobeachin (from UniProt Q9EPN1 1-2936)
5 | no binding | Neuroligin 1 (from UniProt Q99K10 46-843)

Source: PMC3387162
